PubChem BioAssay AID1259254, NCATS | 2017
Aim: 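Gene knock-downs that lead to re-replication, shown by excess G2 DNA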 (primary screen). Cell system: human HCT116 colorectal cancer cells. Reagent: single siRNA against human genes. Duration: 3 days. Detection: 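Nuclei stained with Hoechst and imaged; cell-cycle phase assigned by DNA content; G2 share scaled per plate, non-targeting siRNA 0%, GMNN siRNA 100%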. Scale: G2 robust z-score: higher = more G2 cells, more excess DNA replication. Hit rule: 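An siRNA counts as active if its G2 robust z-score lies at least 5 MADs above the screen median; here such calls match roughly 38% of GMNN control or more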.
Here is a random part of about 59,000 reagents. In the full data, about 1,550 (2.6%) were called active. 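G2 share is only a proxy for re-replication; each gene was hit by three separate siRNAs, and active genes were retested.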 A number with no mark means an inactive call. Not all columns of the deposit are shown. Not given: the amount of reagent.

Depletion of TIPARP (TCDD inducible poly(ADP-ribose) polymerase) [SID160737370] gave: G2 robust z-score -0.478.
TIPARP (TCDD inducible poly(ADP-ribose) polymerase) [SID160737371] scored G2 robust z-score -1.02.
TIPARP (TCDD inducible poly(ADP-ribose) polymerase) [SID160737372] scored G2 robust z-score -0.527.
With knock-down of ZNF280C (zinc finger protein 280C) [SID160743887], the screen gave G2 robust z-score -0.411.
Silencing of ZNF280C (zinc finger protein 280C) [SID160743888] gave: G2 robust z-score -0.783.
For ZNF280C (zinc finger protein 280C) [SID160743889], the entry reads G2 robust z-score 0.802.
After knock-down of GALNT16 (polypeptide N-acetylgalactosaminyltransferase 16) [SID160745987] the results were G2 robust z-score 0.756.
Silencing of GALNT16 (polypeptide N-acetylgalactosaminyltransferase 16) [SID160745988] came out at: G2 robust z-score -0.0256.
After knock-down of GALNT16 (polypeptide N-acetylgalactosaminyltransferase 16) [SID160745989] the results were G2 robust z-score -0.6.
FZD7 (frizzled class receptor 7) [SID160719863] scored G2 robust z-score 1.89.
Against FZD7 (frizzled class receptor 7) [SID160719864], the entry reads G2 robust z-score 1.29.
With knock-down of FZD7 (frizzled class receptor 7) [SID160719865] the results were G2 robust z-score -0.481.
SNAI2 (snail family transcriptional repressor 2) [SID160717021] showed G2 robust z-score 4.37.
With knock-down of SNAI2 (snail family transcriptional repressor 2) [SID160717022], the screen gave G2 robust z-score 0.228.
Against SNAI2 (snail family transcriptional repressor 2) [SID160731763], the entry reads G2 robust z-score 1.1.
WNT7A (Wnt family member 7A) [SID160718842] showed G2 robust z-score -0.522.
For WNT7A (Wnt family member 7A) [SID160718843], the values are G2 robust z-score -1.07.
Silencing of WNT7A (Wnt family member 7A) [SID160718844] resulted in: G2 robust z-score 0.0723.
BPHL (biphenyl hydrolase like) [SID160728756] scored G2 robust z-score -1.02.
With knock-down of BPHL (biphenyl hydrolase like) [SID160728766] the results were G2 robust z-score 5.07 (active).
BPHL (biphenyl hydrolase like) [SID160728776] scored G2 robust z-score -1.17.
RETSAT (retinol saturase) [SID160742405] scored G2 robust z-score 1.83.
Against RETSAT (retinol saturase) [SID160742406], the values are G2 robust z-score -0.56.
With knock-down of RETSAT (retinol saturase) [SID160742407] the results were G2 robust z-score 2.94.

In a second layout: 2 of the entries above
{"gene knocked down": "GALNT16 (polypeptide N-acetylgalactosaminyltransferase 16)", "PubChem SID": "SID160745988", "G2 robust z-score": -0.0256}
{"gene knocked down": "GALNT16 (polypeptide N-acetylgalactosaminyltransferase 16)", "PubChem SID": "SID160745989", "G2 robust z-score": -0.6}
